# Reference: PubChem BioAssay AID485353 (National Center for Advancing Translational Sciences (NCATS), 2010)
# Hit rate of the full screen: of about 330,000 compounds, about 610 (0.18%) were called active. Inconclusive means that the source gave no clear call. Such entries were picked first, then a sample of the others. Calls come from the whole dose curve. Where the call is inconclusive, the potency comes from a doubtful curve fit.
# Experiment: qHTS of Yeast-based Assay for SARS-CoV PLP; note: nearly all actives have a fitted effect of over 55% in size
# Conditions: S. cerevisiae expressing SARS-CoV PLpro; Potency: growth rescue; series mostly up to 32.9 µM
# Potency is the fitted concentration of half-maximal effect.
row,Compound,Potency
1,CCn1c(SCC(=O)N/N=C(\C)c2ccco2)nnc1-c1ccccc1,inactive
2,Cc1ccc(NC(=O)N(Cc2cccs2)Cc2cc3cc4c(cc3[nH]c2=O)OCO4)cc1,"inconclusive: 20 µM [activator, partial curve, poor fit]"
3,CCn1ncc([N+](=O)[O-])c1C(=O)n1nc(C)cc1C,inactive
4,CC(=O)Nc1cccc(C(=O)NCCc2ccco2)c1,inactive
5,Cc1cc(=O)[nH]c(N/N=C/c2ccccc2Cl)n1,inactive
6,N#CCCn1cc(C(=O)Nc2ccccc2Br)c(-c2cc3ccccc3o2)n1,"inconclusive: 22.4 µM [activator, partial curve]"
7,O=C(NCc1ccc(Cl)cc1)C1CCN(S(=O)(=O)c2ccc(N3CCCC3=O)cc2)CC1,"inconclusive: 0.398 µM [activator, full curve, poor fit]"
8,Cc1cccc(N(C(=O)Cn2nnc3ccccc32)C(C(=O)NC(C)(C)C)c2ccsc2)c1C (stereo not given),"inconclusive: 3.98 µM [activator, single point]"
9,C=C(C)CSc1nnc([C@@H](N)Cc2ccccc2)o1,inactive
10,CCc1nc(Nc2ccc(OC)c(OC)c2)c2nnn(Cc3ccccc3Cl)c2n1,active: 17.8 µM
11,Cc1cc([N+](=O)[O-])nn1Cc1ccc(C(=O)N/N=C/c2ccc(O)cc2O)cc1,active: 3.16 µM
12,CCOC(=O)C1(Cc2cccc(Cl)c2)CCCN(C(=O)c2ccco2)C1 (stereo not given),inactive
13,Cc1cc(=O)oc2cc(OCC(=O)Nc3ccc(CN4CCOCC4)cc3)ccc12,"inconclusive: 0.398 µM [activator, partial curve, poor fit]"
14,Cc1ccc(-c2ccc(C(=O)NCc3ccc(Cl)cc3)o2)c2ccccc12,inactive
15,CCC1CCCCN1CCCNC(=O)Cn1c(=O)c2cccn2c2cccnc21 (stereo not given),"inconclusive: 22.4 µM [activator, partial curve, poor fit]"
16,Cc1nn(CC(O)c2ccccc2)c(C)c1Br (stereo not given),"inconclusive: 11.2 µM [activator, single point]"
17,COc1cccc(N2CCN(S(=O)(=O)c3ccc4c(c3)N(C(C)=O)CCO4)CC2)c1,"inconclusive: 3.55 µM [activator, single point]"
18,CC1(C)CC(=O)C(C=NCCN2CCN(C(=O)c3ccc(Br)cc3)CC2)=C(O)C1,"inconclusive: 4.47 µM [activator, single point]"
19,Cc1cccc(C(=O)N2CCC(=O)N(C(COCc3ccccc3)Cc3ccccc3)CC2)c1 (stereo not given),"inconclusive: 20 µM [activator, single point]"
20,O=C(Cn1cc[n+](CC(=O)c2ccc(Cl)cc2Cl)c1)c1ccc(Cl)cc1Cl,inactive
21,CCC(=O)c1ccc(N2CCN(C(=O)c3cc([N+](=O)[O-])ccc3N3CCN(C)CC3)CC2)c(F)c1,"inconclusive: 3.98 µM [activator, single point]"
22,O=C1CCCN1CCC1CCN(C(=O)Nc2ccccc2)CC1,"inconclusive: 14.1 µM [activator, single point]"
23,Cc1ccc(NC(=S)NCc2cccn2C)cc1,"inconclusive: 22.4 µM [activator, single point]"

# Rewritten as tab-separated lines: entries from further up.
row	Compound	Potency
6	N#CCCn1cc(C(=O)Nc2ccccc2Br)c(-c2cc3ccccc3o2)n1	inconclusive: 22.4 µM [activator, partial curve]
7	O=C(NCc1ccc(Cl)cc1)C1CCN(S(=O)(=O)c2ccc(N3CCCC3=O)cc2)CC1	inconclusive: 0.398 µM [activator, full curve, poor fit]
8	Cc1cccc(N(C(=O)Cn2nnc3ccccc32)C(C(=O)NC(C)(C)C)c2ccsc2)c1C (stereo not given)	inconclusive: 3.98 µM [activator, single point]

# Next part.

row,Compound,Potency
1,COc1ccc(C(CNC(=O)c2ccc3c(c2)OCCO3)N(C)C)cc1 (stereo not given),inactive
2,O=C(c1ccc(Cl)c(S(=O)(=O)N2CCCC2)c1)N1CCOCC1,"inconclusive: 0.891 µM [activator, full curve]"
3,CCc1nnc(NS(=O)(=O)c2ccc(NC(=O)c3cccc(Cl)c3)cc2)s1,inactive
4,CCOC(=O)N1CCN(C(=O)CSCC(=O)Nc2nc(-c3ccc(Cl)s3)cs2)CC1,active: 12.6 µM
5,Cc1ccc(NC(=O)CN(c2ccc(C)cc2)S(=O)(=O)c2cccc3nonc23)cc1,"inconclusive: 10 µM [activator, partial curve]"
6,Cc1ccc(-n2[nH]c(C)c(C=Nc3ccc(S(=O)(=O)N4CCOCC4)cc3)c2=O)c(C)c1,"inconclusive: 22.4 µM [activator, partial curve]"
7,COc1cccc(C(=O)N2CCC(n3nccc3NC(=O)C3CCOC3)CC2)c1 (stereo not given),"inconclusive: 12.6 µM [activator, single point]"
8,Cc1cnc(C(=O)OC(C)C(=O)c2c(C)[nH]c3ccccc23)cn1 (stereo not given),"inconclusive: 20 µM [activator, single point]"
9,CCOc1ccccc1CNS(=O)(=O)c1cc(-c2cc(C)no2)ccc1OC,"inconclusive: 15.8 µM [activator, single point]"
10,CCOC(=O)C1CCN(C(=O)COC(=O)c2ccc3[nH]c4c(c3c2)CCCC4)CC1,"inconclusive: 4.47 µM [activator, single point]"
11,Cn1c(-c2ccc3c(c2)OCO3)cnc1NC(=O)CCC(=O)NCCc1ccccc1,inactive
12,O=C(CNC(=O)c1ccccc1)NCC1COc2ccccc2O1 (stereo not given),"inconclusive: 1.58 µM [activator, partial curve]"
13,Cc1ccc(S(=O)(=O)N(C)CC(=O)N2CCN(c3ccccn3)CC2)cc1,"inconclusive: 4.47 µM [activator, single point]"
14,O=C(NCc1cccs1)c1ccncc1,inactive
15,COc1ccc(C)cc1NC(=S)NNC(=O)c1ccccc1Cl,"inconclusive: 15.8 µM [activator, partial curve]"
16,COc1ccc(S(=O)(=O)N2CCCOC2CNC(=O)C(=O)NCc2ccncc2)cc1 (stereo not given),inactive
17,COc1cc2cc(C(=O)N/N=C/c3ccccc3Cl)[nH]c2cc1OC,inactive
18,CC(=O)C(Sc1ccc2nnc(-c3ccncc3)n2n1)C(C)=O,"inconclusive: 22.4 µM [activator, single point]"
19,COc1cc(NC(=O)CN2C(=O)C(=O)N(C3CCCC3)C2=O)cc(OC)c1,inactive
20,O=[N+]([O-])c1ccccc1/C=C/C=N/Nc1nc(N2CCCCC2)nc(N2CCCCC2)n1,inactive
21,Cc1cc(N2CCC(C)CC2)nc(-n2nc(C)cc2C)n1,inactive
22,CCN(C[C@H]1N[C@@](CC)(C(=O)OC)[C@H]2C(=O)N(Cc3ccccc3)C(=O)[C@@H]12)S(=O)(=O)c1ccc(F)cc1,"inconclusive: 17.8 µM [activator, single point]"
